# Values quoted from earlier work in US20260373152A1, “CANCER THERAPY COMPRISING 3,5-DISUBSTITUTED BENZENE ALKYNYL COMPOUND AND IMMUNE CHECKPOINT INHIBITOR” (TAIHO PHARMACEUTICAL CO., LTD., priority 2023, published 2026).
# Columns and labels:
# Details in all cases: PTL 2; futibatinib or a salt thereof
# FGFR3 = test system: FGFR3
# FGFR4 = test system: FGFR4
# FGFR1 = test system: FGFR1
# FGFR = test system: FGFR
compound,measurement,setting,value
"C=CC(=O)N1CC[C@H](n2nc(C#Cc3cc(OC)cc(OC)c3)c3c(N)ncnc32)C1 [futibatinib, (S)-1-(3-(4-amino-3-((3,5-dimethoxyphenyl)ethynyl)-1H-pyrazolo[3,4-d]pyrimidin-1-yl)pyrrolidin-1-yl)prop-2-en-1-one]",inhibition of FGFR3 phosphorylation of tyrosine in the substrate peptide sequence,FGFR3,inhibits
same,inhibition of FGFR4 phosphorylation of tyrosine in the substrate peptide sequence,FGFR4,inhibits
same,inhibition of FGFR1 phosphorylation of tyrosine in the substrate peptide sequence,FGFR1,inhibits
same,FGFR inhibitory effect,FGFR,excellent FGFR inhibitory effect
